Reference: doi:10.1101/2023.01.10.523203 (bioRxiv, 2023)
Changes are numbered by the printed parent chain. Where two headings read alike, the source gives them in different places. These are yes or no findings as the source states them, for the method shown. Some results given as binding are weak or reduced against the parent protein; the word gives no strength. Sequences can lack the tags named with a protein.

The chains behind the UniProt entries cited, without tags or fusion partners.
UniProt Q92963: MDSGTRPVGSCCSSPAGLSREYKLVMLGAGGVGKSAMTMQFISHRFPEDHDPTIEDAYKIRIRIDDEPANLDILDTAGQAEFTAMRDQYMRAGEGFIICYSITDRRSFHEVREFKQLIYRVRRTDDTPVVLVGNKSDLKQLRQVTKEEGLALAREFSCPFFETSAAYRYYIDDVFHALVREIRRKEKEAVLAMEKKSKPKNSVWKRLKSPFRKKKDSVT

Tests used:
Test in all cases: pull-down
[1] = biological target: T1, LZTR1^L580P recombinant protein (LZTR1-Myc-6xHis with p.L580P) (human) (UniProt Q8N653)
T1 sequence: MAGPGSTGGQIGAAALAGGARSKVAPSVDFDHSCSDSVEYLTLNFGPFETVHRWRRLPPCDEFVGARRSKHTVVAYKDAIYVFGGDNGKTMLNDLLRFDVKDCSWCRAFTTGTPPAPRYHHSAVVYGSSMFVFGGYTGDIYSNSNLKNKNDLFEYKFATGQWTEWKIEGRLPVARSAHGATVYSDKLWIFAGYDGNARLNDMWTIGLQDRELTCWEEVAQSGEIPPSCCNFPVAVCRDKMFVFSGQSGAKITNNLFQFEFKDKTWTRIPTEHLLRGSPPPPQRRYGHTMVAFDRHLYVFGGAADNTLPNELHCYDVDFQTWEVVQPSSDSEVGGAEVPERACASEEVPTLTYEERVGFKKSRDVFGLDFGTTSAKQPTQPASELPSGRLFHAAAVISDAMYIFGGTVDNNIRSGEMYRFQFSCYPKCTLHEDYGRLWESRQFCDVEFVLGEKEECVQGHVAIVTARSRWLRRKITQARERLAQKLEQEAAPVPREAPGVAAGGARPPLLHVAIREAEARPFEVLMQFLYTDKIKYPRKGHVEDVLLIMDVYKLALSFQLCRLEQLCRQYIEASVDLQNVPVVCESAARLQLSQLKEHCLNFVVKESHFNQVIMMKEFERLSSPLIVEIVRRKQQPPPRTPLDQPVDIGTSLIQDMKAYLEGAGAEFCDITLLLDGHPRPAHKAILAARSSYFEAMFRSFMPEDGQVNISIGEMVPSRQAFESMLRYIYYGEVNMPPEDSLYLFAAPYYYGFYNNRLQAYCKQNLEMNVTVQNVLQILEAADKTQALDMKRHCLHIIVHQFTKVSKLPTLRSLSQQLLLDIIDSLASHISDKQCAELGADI

[2] = biological target: T2, LZTR1^WT recombinant protein (LZTR1-Myc-6xHis) (human) (UniProt Q8N653)
T2 sequence: T1 sequence with P580L

[3] = biological target: T1, LZTR1^L580P recombinant protein (LZTR1-Myc-6xHis with p.L580P) (human); remark: listed apart in the source
[4] = biological target: T2, LZTR1^WT recombinant protein (LZTR1-Myc-6xHis) (human); remark: listed apart in the source

Measured: binding

GST-fused RIT1 (from UniProt Q92963 1-219)
binds: [1] | [2] | [3] | [4]
